Results are given in words; binding and its absence hold for the method and conditions named. Binding seen in cells or lysates may run through a third protein. Some entries that bind do so weakly or less than the wild type.
T1: scavenger receptor (SR) B1 (human (endogenous in NHEK)) (UniProt Q8WTV0)
T1 sequence: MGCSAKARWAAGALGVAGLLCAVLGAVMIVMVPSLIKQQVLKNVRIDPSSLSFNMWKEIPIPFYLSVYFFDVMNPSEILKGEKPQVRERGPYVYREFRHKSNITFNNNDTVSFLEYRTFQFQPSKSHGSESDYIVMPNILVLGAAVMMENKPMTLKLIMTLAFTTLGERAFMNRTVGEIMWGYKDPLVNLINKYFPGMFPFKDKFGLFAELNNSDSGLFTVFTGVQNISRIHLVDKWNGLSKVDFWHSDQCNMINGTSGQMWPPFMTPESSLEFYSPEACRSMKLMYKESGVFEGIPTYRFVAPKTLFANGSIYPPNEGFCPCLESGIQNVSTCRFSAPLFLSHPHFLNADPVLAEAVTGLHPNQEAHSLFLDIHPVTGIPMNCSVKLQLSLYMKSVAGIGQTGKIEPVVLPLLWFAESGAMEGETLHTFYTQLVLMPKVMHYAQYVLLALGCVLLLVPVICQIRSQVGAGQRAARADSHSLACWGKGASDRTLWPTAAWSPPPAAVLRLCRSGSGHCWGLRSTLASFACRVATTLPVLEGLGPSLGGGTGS


What follows are binders tested against T1, scavenger receptor (SR) B1 (human (endogenous in NHEK)) (assay: proximity ligation; NHEKs treated with LL-34 peptides (2 μM) for 15 min, then biotinylated U1 dsRNA (2 μg/ml) for 60 min at 4 °C; washed, fixed in 4% paraformaldehyde; LL-37 antibody and SRB1 antibody; Duolink PLA, red signal counted in five fields; spatial correlation <40 nm; only the binder purified).

binding	Binder
binds	LLGDFFRKSKEKIGKEFKRIVQRIKDFLRNLVPR [LL-34 parent peptide]
no binding (tested: 2 μM)	LLGDFFRKSKEKIGKEFKRIVQRAKDFLRNLVPR [LL-34—I24A]
no binding (tested: 2 μM)	LLGDFFRKSKEKIGKEFKRIVQRIKDFLRNAVPR [LL-34—L31A]
